Measured values reported in patent publication US20160369115A1, “POLARIZING PLATE COMPOSITION, POLARIZING PLATE PROTECTIVE FILM, POLARIZER, POLARIZING PLATE, LIQUID CRYSTAL DISPLAY DEVICE, AND COMPOUND USED IN THE LIQUID CRYSTAL DISPLAY DEVICE” (FUJIFILM Corporation, priority 2014, published 2016).
Some entries repeat one wording, which the source may state once for all of them.

Tests used:
[1] = Evaluation of light-fast adhesiveness of polarizing plate protective film with hardcoat layer; details: additive in protective film: Cellulose acylate, 25 μm, added amount 4.0 per 100 parts by mass of film resin; light 96 hours, 60° C., 50% RH
[2] = Durability evaluation of polarizing plate, additive in polarizing plate protective film (Example 1); details: additive in protective film: Cellulose acylate, 25 μm, added amount 4.0 per 100 parts by mass of film resin; 410 nm

Compound | Light-fast adhesiveness [1] | Durability of polarizer: amount of change of orthogonal transmittance (%) 60° C., 95%, 500 hours [2] | Durability of polarizer: amount of change of orthogonal transmittance (%) 60° C., 95%, 1,000 hours [2] | Durability of polarizer: amount of change of orthogonal transmittance (%) 80° C., Dry 500 hours [2] | Durability of polarizer: amount of change of orthogonal transmittance (%) 80° C., Dry, 1,000 hours [2]
COC(=O)Oc1[nH]c(=O)[nH]c(=O)c1C=O [Example compound AAT] | A (The number of cells peeled off among 100 cells was equal to or less than 10.) | A+ (The amount of change of the orthogonal transmittance before and after the elapse of time was less than 0.4%.) | A+ (The amount of change of the orthogonal transmittance before and after the elapse of time was less than 1.0%.) | A+ (The amount of change of the orthogonal transmittance before and after the elapse of time was less than 0.1%.) | A+ (The amount of change of the orthogonal transmittance before and after the elapse of time was less than 0.5%.)
COC(=O)Oc1[nH]c(=O)n(Cc2ccc(B(O)O)cc2)c(=O)c1Cc1ccccc1 [Example compound AAK] | A (The number of cells peeled off among 100 cells was equal to or less than 10.) | A+ (The amount of change of the orthogonal transmittance before and after the elapse of time was less than 0.4%.) | A+ (The amount of change of the orthogonal transmittance before and after the elapse of time was less than 1.0%.) | A+ (The amount of change of the orthogonal transmittance before and after the elapse of time was less than 0.1%.) | A+ (The amount of change of the orthogonal transmittance before and after the elapse of time was less than 0.5%.)
CC(C)[Si](Oc1c(Cc2ccccc2)c(=O)n(-c2ccccc2)c(=O)n1Cc1ccccc1)(C(C)C)C(C)C [Example compound K] | A (The number of cells peeled off among 100 cells was equal to or less than 10.) | A+ (The amount of change of the orthogonal transmittance before and after the elapse of time was less than 0.4%.) | A+ (The amount of change of the orthogonal transmittance before and after the elapse of time was less than 1.0%.) | A+ (The amount of change of the orthogonal transmittance before and after the elapse of time was less than 0.1%.) | A+ (The amount of change of the orthogonal transmittance before and after the elapse of time was less than 0.5%.)
